Assay results from publication PMC6787034.
These are yes or no findings as the source states them, for the method shown. Binding seen in cells or lysates may run through a third protein. Some entries that bind do so weakly or less than the wild type.

By UniProt entry, the sequences of proteins in these tests, tags left out.
UniProt P30281: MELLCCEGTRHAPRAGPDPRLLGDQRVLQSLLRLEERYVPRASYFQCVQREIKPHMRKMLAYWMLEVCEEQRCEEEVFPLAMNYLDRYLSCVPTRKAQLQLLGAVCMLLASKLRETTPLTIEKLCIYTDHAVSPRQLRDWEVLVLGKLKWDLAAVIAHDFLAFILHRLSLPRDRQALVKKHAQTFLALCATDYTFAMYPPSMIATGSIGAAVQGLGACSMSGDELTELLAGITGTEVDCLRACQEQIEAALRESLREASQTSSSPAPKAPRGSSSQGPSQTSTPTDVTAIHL
UniProt P08727: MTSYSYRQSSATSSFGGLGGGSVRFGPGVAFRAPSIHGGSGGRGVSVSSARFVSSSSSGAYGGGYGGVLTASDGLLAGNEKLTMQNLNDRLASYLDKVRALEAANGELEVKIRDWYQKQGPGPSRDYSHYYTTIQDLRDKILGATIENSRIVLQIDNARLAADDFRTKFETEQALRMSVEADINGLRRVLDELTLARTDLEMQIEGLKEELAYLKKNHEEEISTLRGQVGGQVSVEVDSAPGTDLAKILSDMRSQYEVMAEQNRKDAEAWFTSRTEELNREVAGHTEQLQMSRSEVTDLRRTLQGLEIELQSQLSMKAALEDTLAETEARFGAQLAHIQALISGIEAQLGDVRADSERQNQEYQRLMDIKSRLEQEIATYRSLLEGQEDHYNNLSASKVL

What was measured:
[1] = biological target: cyclin D3 (human (endogenous in MCF7)) (UniProt P30281); test: co-IP; anti-cyclin D3 IP with IgG as control; cold NP-40 lysis buffer (0.25% NP-40, 50 mM Tris pH 8.0, 100 mM sodium chloride); immune complexes captured on Protein G Sepharose; immunoblot
[2] = biological target: Keratin 19 (human (endogenous in MCF7)) (UniProt P08727); test: co-IP; anti-K19 IP with IgG as control; cold Triton lysis buffer (1% Triton X-100, 40 mM HEPES pH 7.5, 120 mM sodium chloride, 1 mM EDTA) supplemented with 2% empigen; immune complexes captured on Protein G Sepharose; immunoblot

Row | binding [1] | binding [2] | Substance
1 | binds |  | Keratin 19 (from UniProt P08727 1-400)
2 |  | binds | cyclin D3 (from UniProt P30281 1-292)
